# Experimental data as given in PubChem BioAssay AID2685 (National Center for Advancing Translational Sciences (NCATS), 2010).
# The list shows a part of the results. Further columns of the screen follow, without active or inactive calls. Most of these compounds were active or inconclusive in the main read-out, so they are no random draw. Potencies come from curve fits of mixed quality, noted in brackets.
# Test: qHTS Assay for Lipid Storage Modulators in Drosophila S3 Cells;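 for cell number change: cells counted by Cell Tracker Red CMTPX staining in the red channel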
# Conditions: BODIPY lipid droplet fluorescence, 18-24 h; for cell number change: measured here: cell count max response, cells fed with added oleic acid
# Procedure, shortened: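 Drosophila S3 cells loaded with oleic acid (400 uM, as added) and compounds at several concentrations; lipid droplets imaged by 488-nm laser-scanning cytometry, 500–530 nm intensity and object ratio to cell channel. Percent activity normalized to 20 uM Triacsin C.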
# [1] = measured here: cell number channel AC50, cells fed with added oleic acid
# [2] = measured here: lipid fluorescence (Fed channel) AC50, cells fed with added oleic acid
Structure (SMILES),cell number change [%],AC50 [1],AC50 [2]
CC(Oc1ccccc1)C(=O)NC1CC(C)(C)NC(C)(C)C1 (stereo not drawn),-154,"25.9 µM [falling, partial curve]","23.1 µM [falling, partial curve]"
Cc1ccc(O)c(-c2cc(-c3cccc(F)c3)n[nH]2)c1,-73.6,–,"1.3 µM [falling, full curve]"
Cc1ccc(F)cc1NC(=O)c1c(-c2ccccc2)noc1C,–,–,"0.092 µM [rising, full curve, poor fit]"
CCCCOc1ccc(CSc2nnc(C)n2N)cc1[N+](=O)[O-],12.7,–,"0.13 µM [rising, full curve, poor fit]"
CCN(CCNC(=O)C1CCN(S(=O)(=O)c2cccc3nsnc23)CC1)c1ccccc1,-31.6,"29.1 µM [falling, single point]",–
O=C(CCNS(=O)(=O)c1ccccc1)Nc1ccccc1,10.4,–,"0.651 µM [rising, partial curve, poor fit]"
CCCCCCn1c(SCCCC)nc2c1c(=O)[nH]c(=O)n2C,–,–,"6.51 µM [rising, single point]"
COc1ccc(-n2cnnc2SCC(=O)c2cc(C)n(Cc3cccs3)c2C)cc1,-5.45,"1.46 µM [rising, full curve, poor fit]",–
O=C(CS(=O)(=O)c1ccccc1)Nc1ccc(S(=O)(=O)Nc2ccccn2)cc1,-4.22,–,"0.146 µM [falling, full curve, poor fit]"
CC(C)Cn1[nH]c2c3c(ccc2c1=O)C(=O)c1ccccc1C3=O,-60.7,"5.17 µM [falling, full curve]","4.11 µM [falling, partial curve]"
Cc1cccc(C(=O)NNC(=O)CSc2nnc(C3CC3)n2C)c1,10.3,–,–
CC(=O)N1CCC(N(C(=O)Nc2c(F)cccc2F)C(C)C)CC1,11,–,"6.51 µM [rising, single point]"
CCCC(CCC)C(=O)Nc1ccc2c(c1)N(C(=O)CCN1CCN(C)CC1)c1ccccc1CC2,-0.964,–,"0.082 µM [falling, full curve, poor fit]"
O=C(C1CC(=O)N(c2ccc(Cl)cc2)C1)N1CCN(Cc2ccc3c(c2)OCO3)CC1 (stereo not drawn),37.2,"29.1 µM [rising, single point]","29.1 µM [falling, single point]"
CN1CCN(S(=O)(=O)c2ccc(SCCOc3ccc(Cl)cc3)nc2)CC1,-26.1,–,"29.1 µM [falling, single point]"
O=c1c2c3n(c(=S)nc2[nH]n1-c1ccccc1)CCCCC3,6.99,–,"0.92 µM [falling, full curve, poor fit]"
Oc1c(Br)cc2oc3c(c2c1CNCc1ccccc1)CCCC3,2.08,–,"29.1 µM [rising, single point]"
CC(C)C(C(=O)Nc1nccs1)c1ccc(Cl)cc1 (stereo not drawn),-19,–,"1.16 µM [rising, full curve]"
O=C(NC(Cc1ccccc1)C(=O)O)/C(=C/c1ccc(Cl)cc1)NC(=O)c1ccco1 (stereo not drawn),47.6,"29.1 µM [rising, single point]",–
CCOC(=O)c1c(C)[nH]c(C(=O)COC(=O)/C=C/c2ccc(OC(F)F)cc2)c1C,0.689,"2.59 µM [rising, partial curve]",–

Structure (SMILES),cell number change [%],AC50 [1],AC50 [2]
CC(C)Cc1csc(NC(=O)c2ccc(F)cc2)c1C(=O)O,51.5,"1.64 µM [rising, partial curve]","29.1 µM [rising, single point]"
COc1ccc([N+](=O)[O-])cc1N1C(=O)c2cccnc2C1=O,–,–,"0.411 µM [falling, full curve]"
O=C(Cn1nc(-c2cccc(Cl)c2)ccc1=O)Nc1cccnc1,-21.4,–,"0.0326 µM [rising, full curve, poor fit]"
COc1cc2c(cc1OC)CN(CC(=O)Nc1ccc(F)cc1)CC2,5.94,–,–
O=C(Nc1ccccc1Cl)NC1(C(=O)NCc2ccncc2)CCCCC1,-17.1,–,–
CC1CN=C2C(C(=O)Nc3ccccc3)=C(O)CC(c3ccccc3)N21 (stereo not drawn),-7.28,–,–
CCOc1ccc(Br)cc1C1=NN(C(C)=O)C(c2ccc([N+](=O)[O-])s2)O1 (stereo not drawn),16.7,–,–
Cc1ccc(C)c(NC(=S)N2CCC(NC(=O)C3CCCCC3)CC2)c1,5.41,–,"6.51 µM [rising, single point]"
CCn1c(CSc2nc3ccccc3s2)nnc1SCC(=O)OC(C)(C)C,-32.5,"32.6 µM [falling, single point]","23.1 µM [falling, partial curve]"
c1ccc2c3c([nH]c2c1)-c1[nH]ncc1CC3,-18.6,–,"6.51 µM [rising, single point]"
CCn1c2ccccc2c2cc(NC(=O)c3ccc(C)c([N+](=O)[O-])c3)ccc21,5.39,–,"0.517 µM [rising, full curve]"
CC1CCCC(C)N1C(=O)CSc1nnc(C2CCCCC2)o1 (stereo not drawn),-0.453,–,–
O=C(CSc1ccc(Cl)cc1)NNC(=O)c1ccncc1,35.9,"29.1 µM [rising, single point]",–
CC(NC(=O)CCSCc1ccccc1F)c1ccccc1 (stereo not drawn),-4.23,–,"29.1 µM [rising, single point]"
C(=C\c1ccccc1)/CNCC1CCCO1 (stereo not drawn),37.3,"0.651 µM [rising, full curve]",–
O=C(c1ccc2c(c1)N(Cc1ccccc1F)C(=O)c1ccccc1S2(=O)=O)N1CCCC1,-19.2,–,–
Cc1cc2c(cc1S(=O)(=O)Nc1ccc(F)cc1)n(C)c(=O)c(=O)n2C,-3.17,–,"8.2 µM [falling, partial curve]"
COc1ccc(NC(=O)CN(C)C(=O)c2cc(-c3cccs3)nn2-c2ccccc2)cc1,–,–,"0.00461 µM [falling, full curve, poor fit]"
CC1(C)SC(=S)N(NC(=O)Nc2cccc3ccccc23)C1N(O)C(=O)Nc1ccccc1 (stereo not drawn),-36.2,"0.259 µM [falling, full curve, poor fit]","29.1 µM [rising, single point]"

# Two compounds drawn at random from the list so far:
Structure (SMILES),cell number change [%],AC50 [1],AC50 [2]
O=C(CS(=O)(=O)c1ccccc1)Nc1ccc(S(=O)(=O)Nc2ccccn2)cc1,-4.22,–,"0.146 µM [falling, full curve, poor fit]"
CC1(C)SC(=S)N(NC(=O)Nc2cccc3ccccc23)C1N(O)C(=O)Nc1ccccc1 (stereo not drawn),-36.2,"0.259 µM [falling, full curve, poor fit]","29.1 µM [rising, single point]"
